{"source": "patent US20240000859A1", "about": "“DESIGNED BACTERIAL COMPOSITIONS FOR TREATING GRAFT-VERSUS-HOST-DISEASE” (Seres Therapeutics, Inc., priority 2020, published 2024)", "test_system": "HDAC enzymes", "test": "HDAC inhibition assay (HDAC-Glo I/II, HeLa nuclear extract)", "type": "biochemical", "note": "For at least one compound, name, drawing or mass did not settle the structure."}
{"compound": "CCCC(=O)O", "note": "[butyrate]", "values": [{"measurement": "HDAC inhibition", "setting": "10 mM butyrate", "result": 91, "unit": "%"}, {"measurement": "HDAC inhibition", "setting": "sterile supernatant spiked with 15 mM butyrate", "result": "65-75%"}]}
